Test results: PubChem BioAssay AID540276 (National Center for Advancing Translational Sciences (NCATS), 2011)
The whole screen tested about 300,000 compounds, of which about 5,400 (1.8%) were called active. The inconclusive results got no clear call from the source; some entries with a clear call stand among them for comparison. Calls come from the whole dose curve; tested in HEK293 cells. A potency beside an inconclusive call is a rough fit, not a confirmed value.

assay: qHTS for inhibitors of binding or entry into cells for Marburg Virus; settings: Marburg virus pseudotyped entry inhibition, cell reporter; activity change, negative = inhibition: at 37.8 µM (top of the series) unless noted
% is set by controls: 0 for no effect and ±100 for the full control effect; potency is the fitted concentration of half-maximal effect.

Row | Compound | Potency | activity change, negative = inhibition
1 | O=C(CSc1cccc[n+]1[O-])Nc1ccccc1Oc1ccccc1 | inconclusive: 10 µM [inhibitor, partial curve, poor fit] | 
2 | Cc1ncc(CN2CCCC(C(=O)c3sccc3C)C2)s1 (stereo unspecified) |  | inactive: -14.7% [at 46.1 µM]
3 | C=CCn1c(-c2cc3c(s2)CCC(CC)C3)n[nH]c1=S (stereo unspecified) |  | inactive: 9.87% [at 46.1 µM]
4 | CC(C)OCCCNC(=O)c1cc(Sc2ccc(F)cc2)nc2ccccc12 | inconclusive: 2.51 µM [inhibitor, partial curve, poor fit] | 
5 | COc1ccc(/C=C2\N=C3CCCCCN3C2=O)cc1 | inconclusive: 5.62 µM [activator, single point] | 
6 | Cc1cc(NCCCn2ccnc2)n2nc(C)c(-c3ccc(Cl)cc3)c2n1 | inconclusive: 23.1 µM [inhibitor, partial curve, poor fit] | 
7 | CCOC(=O)C(NC(=O)c1ccccc1Cl)(Nc1ccc(C)c(C)c1)C(F)(F)F (stereo unspecified) | inconclusive: 5.62 µM [activator, single point] | 
8 | O=C(N/N=C/c1cccn1-c1ccc([N+](=O)[O-])cc1)C(O)c1ccccc1 (stereo unspecified) | inconclusive: 32.6 µM [inhibitor, single point] | 
9 | Cc1cccc(NC(=O)c2cc3c(=O)n4cccc(C)c4nc3s2)c1C | inconclusive: 2.82 µM [inhibitor, full curve, poor fit] | 
10 | O=C(NC(Cc1c[nH]c2ccccc12)C(=O)Nc1ccc(F)cc1)c1cccs1 (stereo unspecified) | inconclusive: 1.58 µM [inhibitor, single point] | 
11 | CCn1c(/N=C/c2ccccc2NS(=O)(=O)c2ccc(C)cc2)nc2ccccc21 | inconclusive: 35.5 µM [inhibitor, single point] | 
12 | CCC(C)(C)c1ccc(OCC(=O)N(C)C)c(C(C)(C)CC)c1 | inconclusive: 7.08 µM [inhibitor, partial curve, poor fit] | 
13 | COc1ccc(S(=O)(=O)N2CCOCC2)cc1NC(=O)C1COc2ccccc2O1 (stereo unspecified) | inconclusive: 14.1 µM [inhibitor, single point] | 
14 | CCC(=O)OCC(=O)Nc1cc([N+](=O)[O-])ccc1OC |  | inactive: -27.2% [at 46.1 µM]
15 | CCn1c(=N)n(CC(O)c2ccccc2)c2ccccc21 (stereo unspecified) | inconclusive: 35.5 µM [inhibitor, single point] | 
16 | Cc1cc(C)c[n+](CC(=O)c2ccc(NC(=O)c3ccccc3)cc2)c1 |  | inactive: 13.7% [at 46.1 µM]
17 | Cc1ccc(-c2nc(C#N)c(NCCc3ccccn3)o2)cc1 |  | inactive: 4.89%
18 | O=C(Nc1cc(C(F)(F)F)ccc1-n1cncn1)c1ccc(Br)cc1 | inconclusive: 0.116 µM [inhibitor, full curve, poor fit] | 
19 | N=c1n(CC(=O)c2ccc([N+](=O)[O-])cc2)c2ccccc2n1Cc1ccccc1 | inconclusive: 35.5 µM [inhibitor, single point] | 
20 | O=C(NC12CC3CC(CC(C3)C1)C2)c1ccc(S(=O)(=O)N2CCOCC2)cc1 | inconclusive: 35.5 µM [inhibitor, single point] | 
21 | O=[N+]([O-])c1ccc(N2CCCCC2)cc1N1CCOCC1 |  | inactive: -13.8%
22 | O=C(Nc1cccc2ccccc12)c1nn(C23CC4CC(CC(C4)C2)C3)cc1Br | inconclusive: 10 µM [inhibitor, partial curve, poor fit] | 

Row | Compound | Potency | activity change, negative = inhibition
23 | Cc1ccc2oc(-c3ccc(C)c(NC(=O)c4ccc(N5CCC(C)CC5)c([N+](=O)[O-])c4)c3)nc2c1 |  | inactive: 3.13% [at 46.1 µM]
24 | Cc1cccc(NC(=O)COc2ccccc2)c1 | inconclusive: 0.82 µM [activator, single point] | 
25 | CN1CCN(c2ccccc2NC(=O)c2ccc(OCc3ccccc3)cc2)CC1 |  | inactive: -19.2% [at 46.1 µM]
26 | CCCn1c(CNC(=O)c2ccc(F)cc2)nc2ccccc21 | inconclusive: 5.01 µM [inhibitor, single point] | 
27 | O=C(O)CCn1c2ccccc2c2nc3ccccc3nc21 | inconclusive: 14.1 µM [activator, single point] | 
28 | CCCCCCCCC(=O)NC(NC(=S)N1CCOCC1)C(Cl)(Cl)Cl (stereo unspecified) | inconclusive: 25.9 µM [inhibitor, single point] | 
29 | O=[N+]([O-])c1ccc(SCCc2ccncc2)cc1 | inactive | 
30 | CCCCCOc1ccccc1C(=O)NCC(=O)O | inconclusive: 14.1 µM [activator, partial curve] | 
31 | Fc1ccc(Nc2nc(-c3ccncc3)nc3ccccc23)cc1F | active: 7.08 µM | 
32 | O=C(Cn1cnc([N+](=O)[O-])n1)N/N=C/c1cc(Cl)ccc1O | inconclusive: 20 µM [inhibitor, partial curve, poor fit] | 
33 | O/N=C/c1cn(-c2ccc(Cl)cc2)nn1 | inconclusive: 2.51 µM [activator, single point] | 
34 | COc1cc(OC)c(OC)cc1CN1CCN(C(=O)COc2ccc3ccccc3c2)CC1 | inconclusive: 0.794 µM [inhibitor, full curve, poor fit] | 
35 | CCN(CCCNC(=O)CNC(=O)c1nn(-c2ccc(OC)c(OC)c2)c(=O)c2ccccc12)c1ccccc1 | inconclusive: 20 µM [inhibitor, partial curve, poor fit] | 
36 | CCC(CC)NC(=O)CN(c1ccccc1OC)S(=O)(=O)c1cccs1 |  | inactive: -2.02%
37 | OC(CNCCc1c[nH]c2ccccc12)c1ccccc1 (stereo unspecified) | inconclusive: 22.4 µM [inhibitor, single point] | 
38 | O=C(CC(c1ccccc1)c1cc(Br)ccc1O)NCCN1CCOCC1 (stereo unspecified) | inconclusive: 11.2 µM [activator, partial curve] | 
39 | N#CC1=C(SCC(=O)c2ccc(Cl)cc2)NC2=C(C(=O)CCC2)[C@H]1c1ccco1 | inconclusive: 6.31 µM [inhibitor, partial curve] | 
40 | COc1cc(C(=O)N(C)CCOc2ccccc2)ccc1OCC(=O)Nc1cccc(C(F)(F)F)c1 | inconclusive: 35.5 µM [inhibitor, single point] | 
41 | Cc1cc2c(cc1C)C(=O)C(Br)=C(N)C2=O |  | inactive: -3.9% [at 46.1 µM]
42 | CCc1nc(SCC(=O)Nc2ccc(F)cc2)c2c(=O)n(C)c(=O)n(C)c2n1 |  | inactive: -23.3%
43 | CN(C)c1ccc(/C=C2\CCCc3c2nc2ccccc2c3C(=O)O)cc1 |  | inactive: 9.22% [at 46.1 µM]
44 | O=[N+]([O-])c1ccccc1-c1nc(-c2ccc(Br)o2)no1 | inconclusive: 14.1 µM [inhibitor, single point] | 

4 records picked at random from those above:
Row | Compound | Potency | activity change, negative = inhibition
39 | N#CC1=C(SCC(=O)c2ccc(Cl)cc2)NC2=C(C(=O)CCC2)[C@H]1c1ccco1 | inconclusive: 6.31 µM [inhibitor, partial curve] | 
24 | Cc1cccc(NC(=O)COc2ccccc2)c1 | inconclusive: 0.82 µM [activator, single point] | 
35 | CCN(CCCNC(=O)CNC(=O)c1nn(-c2ccc(OC)c(OC)c2)c(=O)c2ccccc12)c1ccccc1 | inconclusive: 20 µM [inhibitor, partial curve, poor fit] | 
23 | Cc1ccc2oc(-c3ccc(C)c(NC(=O)c4ccc(N5CCC(C)CC5)c([N+](=O)[O-])c4)c3)nc2c1 |  | inactive: 3.13% [at 46.1 µM]

Additional records.

Row | Compound | Potency | activity change, negative = inhibition
45 | COc1cc(CN(C(=O)c2ccccc2)c2ccccn2)cc(OC)c1OC |  | inactive: -0.656% [at 46.1 µM]
46 | CCCCNC(=S)Nc1ccc([N+](=O)[O-])cc1 | inconclusive: 9.2 µM [inhibitor, single point] | 
47 | CCn1c2ccccc2c2cc(NC(=O)COC(=O)c3cc(S(N)(=O)=O)c(Cl)cc3Cl)ccc21 |  | inactive: -20.2% [at 46.1 µM]
48 | COc1ccc(CCNc2ccc(S(=O)(=O)N3CCN(C)CC3)cc2[N+](=O)[O-])cc1 | inconclusive: 7.08 µM [inhibitor, partial curve, poor fit] | 
49 | CCOC(=O)c1sc(=NC(=O)c2cccs2)n(C)c1C | inconclusive: 0.708 µM [activator, full curve, poor fit] | 
50 | O=C1CCCC1C(O)c1ccc2ccccc2c1 (stereo unspecified) | inconclusive: 0.0033 µM [inhibitor, full curve, poor fit] | 
51 | O=C(c1ccc(-c2nnc(Nc3ccccc3)c3ccccc23)cc1)N1C[C@H]2C[C@H](C1)c1cccc(=O)n1C2 | inconclusive: 35.5 µM [inhibitor, single point] | 
52 | O=C(COC(=O)COc1cccc(F)c1)NCCC1=CCCCC1 | inconclusive: 0.891 µM [inhibitor, full curve, poor fit] | 
53 | COc1ccc(N(C(=O)CSCC(=O)Nc2cc(C)on2)C(C(=O)NC2CCCCC2)c2ccc(O)c(O)c2)cc1 (stereo unspecified) | inconclusive: 5.01 µM [inhibitor, full curve, poor fit] | 
54 | O=C(C1CCCO1)N1CCN(C(=S)Nc2ccccc2F)CC1 (stereo unspecified) | inconclusive: 1.26 µM [inhibitor, single point] | 
55 | NC(=O)CC1C(=O)N(c2ccccc2)C(=S)N1NC(=O)c1ccc(Br)cc1 (stereo unspecified) | inconclusive: 1.41 µM [activator, partial curve, poor fit] | 
56 | O=C1/C(=C/N(C(=O)c2ccco2)c2ccc(Br)cc2)Sc2ccccc21 | inconclusive: 14.1 µM [inhibitor, partial curve, poor fit] | 
57 | COc1ccc(/C=N/n2cnnc2SCCO)cc1OC |  | inactive: 3.67%
58 | CC(C)(C)c1ccc(Cn2ccc(-c3ccc4c(c3)OCO4)n2)cc1 |  | inactive: 9.95%
59 | CCN(CC)S(=O)(=O)c1ccc(C(=O)NC(=S)N(CCC#N)Cc2cccnc2)cc1 | inconclusive: 35.5 µM [activator, partial curve, poor fit] | 
60 | CCc1nccn1C(=O)c1cnn2c(C(F)F)cc(-c3ccc(C)cc3)nc12 | inconclusive: 11.2 µM [inhibitor, partial curve] | 
61 | CCN(c1ccccc1)S(=O)(=O)c1ccc(C(=O)N2CCN(c3ccccc3)CC2)cc1 | inconclusive: 11.2 µM [inhibitor, partial curve, poor fit] | 
62 | Cc1cc(NC(=O)CSCC(=O)OCc2nnc(-c3ccc(F)cc3)o2)no1 | inconclusive: 7.94 µM [activator, partial curve, poor fit] | 
63 | O=C(CSCc1ccccc1)N1CCN(S(=O)(=O)c2cccc(F)c2)CC1 | inconclusive: 6.31 µM [activator, partial curve] | 
64 | CC1CCN(c2c(NCC3CCC(C(=O)NCCC4=CCCCC4)CC3)c(=O)c2=O)CC1 (stereo unspecified) |  | inactive: -29.2% [at 46.1 µM]
65 | C=CCn1c(N)c(C(=O)NCC2CCCO2)c2nc3ccccc3nc21 (stereo unspecified) | inconclusive: 18.3 µM [inhibitor, partial curve, poor fit] | 
66 | O=C(CN(c1ccc2c(c1)OCCO2)S(=O)(=O)c1ccccc1)NCc1ccc(Cl)cc1 | inconclusive: 29.1 µM [inhibitor, single point] | 
